From publication PMC6831992
These are yes or no findings as the source states them, for the method shown. For some assays here: In cells and extracts the contact can be indirect. Some results given as binding are weak or reduced against the parent protein; the word gives no strength. For some assays here: Where a sequence is shown, tags or fusion partners need not be part of it.

T1: bioGFP-Tail, MT-binding C-terminal fragment of Gas2L1 (human) (UniProt Q99501)
T1 sequence (chain, biotin on the AviTag (by co-expressed biotin ligase BirA)): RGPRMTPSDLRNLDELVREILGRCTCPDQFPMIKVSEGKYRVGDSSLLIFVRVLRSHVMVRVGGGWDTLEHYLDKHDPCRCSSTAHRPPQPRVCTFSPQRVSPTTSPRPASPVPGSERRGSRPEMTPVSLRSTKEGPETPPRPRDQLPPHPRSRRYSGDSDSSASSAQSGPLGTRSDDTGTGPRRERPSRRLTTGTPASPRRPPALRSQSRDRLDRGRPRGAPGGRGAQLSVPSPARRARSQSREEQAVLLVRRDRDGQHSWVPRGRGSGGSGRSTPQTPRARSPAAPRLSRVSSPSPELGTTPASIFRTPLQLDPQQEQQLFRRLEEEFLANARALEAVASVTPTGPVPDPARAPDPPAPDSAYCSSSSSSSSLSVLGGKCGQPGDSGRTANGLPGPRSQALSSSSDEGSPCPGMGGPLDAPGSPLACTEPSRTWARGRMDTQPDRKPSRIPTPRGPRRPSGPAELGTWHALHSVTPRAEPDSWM

B1: HA-tagged CH domain of Gas2L1 (domain or fragment, UniProt Q99501 27-148)
chain: EAMKEDLAEWLNALYGLGLPGGGDGFLTGLATGTTLCQHANAVTEAARALAAARPARGVAFQAHSVVPGSFMARDNVATFIGWCRVELGVPEVLMFETEDLVLRKNEKSVVLCLLEVARRGA

Experiments:
[1] = target: 6xHis-tagged recombinant human mCherry-EB3 (human) (UniProt Q9UPY8); experiment: TIRF microscopy of an in vitro reconstitution; composite assay with Gas2L1, F-actin (1 μM), MTs and EB3; both purified
[2] = target: T1, bioGFP-Tail, MT-binding C-terminal fragment of Gas2L1 (human); experiment: pull-down; biotinylated bioGFP-Gas2L1 fragments on streptavidin Dynabeads, HA-CH co-expressed in HEK293; lysis 50 mM Tris-HCl pH 7.5, 233 mM NaCl, 0.5% Triton X-100, 5 mM MgCl2; 4°C; blot for HA

Molecule | binding [1] | binding [2]
StrepII-GFP-Gas2L1, purified full-length Gas2L1 (from UniProt Q99501 1-681) | no binding | –
B1 | – | binds
